Results: patent US20060019314A1
These are yes or no findings as the source states them, for the method shown. In cells and extracts the contact can be indirect. Some binding calls cover weakened binding; strength is not graded here. Tags and fused reporters may be left off the sequences shown. Values belong to the molecule of their own block, whether it stands above or below them.

Amino acid sequences for entries named in this document (tags omitted). A change or cut given only in a name is not applied to a line headed by its entry. Chains listed by the source or under a name are the forms on record and can include a tag or linker.
UniProt O43524: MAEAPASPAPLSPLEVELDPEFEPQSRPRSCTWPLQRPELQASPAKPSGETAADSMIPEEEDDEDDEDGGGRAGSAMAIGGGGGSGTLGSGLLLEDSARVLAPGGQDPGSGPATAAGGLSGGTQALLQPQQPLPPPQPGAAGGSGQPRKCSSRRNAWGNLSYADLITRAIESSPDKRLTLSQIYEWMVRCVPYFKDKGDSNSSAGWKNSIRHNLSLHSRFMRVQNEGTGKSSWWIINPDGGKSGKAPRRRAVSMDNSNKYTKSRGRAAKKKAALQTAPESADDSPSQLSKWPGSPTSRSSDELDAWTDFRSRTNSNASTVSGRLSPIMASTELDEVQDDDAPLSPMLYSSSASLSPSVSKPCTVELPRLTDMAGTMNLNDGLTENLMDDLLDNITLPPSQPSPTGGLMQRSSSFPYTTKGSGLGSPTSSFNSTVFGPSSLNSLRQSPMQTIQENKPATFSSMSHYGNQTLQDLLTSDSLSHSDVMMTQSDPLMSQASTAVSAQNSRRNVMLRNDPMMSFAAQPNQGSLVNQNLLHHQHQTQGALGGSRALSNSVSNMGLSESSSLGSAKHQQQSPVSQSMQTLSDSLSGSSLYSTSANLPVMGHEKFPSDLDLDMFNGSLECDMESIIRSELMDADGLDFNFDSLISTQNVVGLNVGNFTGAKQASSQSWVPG
UniProt P98177: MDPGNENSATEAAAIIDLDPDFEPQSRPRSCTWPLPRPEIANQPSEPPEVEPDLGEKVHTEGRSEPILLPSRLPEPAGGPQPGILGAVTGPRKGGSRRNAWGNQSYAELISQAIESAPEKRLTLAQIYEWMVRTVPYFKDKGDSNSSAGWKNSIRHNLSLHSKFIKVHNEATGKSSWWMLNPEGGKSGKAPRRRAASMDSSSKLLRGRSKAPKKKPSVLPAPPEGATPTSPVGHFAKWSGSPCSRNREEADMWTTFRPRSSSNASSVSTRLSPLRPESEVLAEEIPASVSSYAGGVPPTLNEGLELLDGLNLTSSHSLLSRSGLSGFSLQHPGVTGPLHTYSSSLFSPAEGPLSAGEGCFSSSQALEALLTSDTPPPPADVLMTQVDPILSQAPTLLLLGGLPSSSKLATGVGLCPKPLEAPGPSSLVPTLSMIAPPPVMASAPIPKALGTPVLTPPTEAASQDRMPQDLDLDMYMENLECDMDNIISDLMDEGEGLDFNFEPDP
HA-tagged FOXO4-TM (P98177, form named): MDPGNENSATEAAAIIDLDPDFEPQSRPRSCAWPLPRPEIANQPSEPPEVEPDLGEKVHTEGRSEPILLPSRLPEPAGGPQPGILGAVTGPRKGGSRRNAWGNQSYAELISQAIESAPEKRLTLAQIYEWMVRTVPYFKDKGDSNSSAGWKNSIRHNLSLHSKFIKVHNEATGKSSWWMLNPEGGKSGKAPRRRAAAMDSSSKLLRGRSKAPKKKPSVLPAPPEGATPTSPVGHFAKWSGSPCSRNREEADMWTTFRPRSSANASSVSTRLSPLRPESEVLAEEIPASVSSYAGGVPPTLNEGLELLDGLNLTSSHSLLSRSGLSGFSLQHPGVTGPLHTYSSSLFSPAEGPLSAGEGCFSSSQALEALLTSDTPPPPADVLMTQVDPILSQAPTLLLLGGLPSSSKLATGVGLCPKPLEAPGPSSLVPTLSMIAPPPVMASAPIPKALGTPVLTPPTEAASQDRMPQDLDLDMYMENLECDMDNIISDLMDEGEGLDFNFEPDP

Assays:
[1] = target: T1, FLAG-tagged Smek1 (human) (UniProt Q6IN85); assay: co-immunoprecipitation from 293T cells, western blot
T1 sequence: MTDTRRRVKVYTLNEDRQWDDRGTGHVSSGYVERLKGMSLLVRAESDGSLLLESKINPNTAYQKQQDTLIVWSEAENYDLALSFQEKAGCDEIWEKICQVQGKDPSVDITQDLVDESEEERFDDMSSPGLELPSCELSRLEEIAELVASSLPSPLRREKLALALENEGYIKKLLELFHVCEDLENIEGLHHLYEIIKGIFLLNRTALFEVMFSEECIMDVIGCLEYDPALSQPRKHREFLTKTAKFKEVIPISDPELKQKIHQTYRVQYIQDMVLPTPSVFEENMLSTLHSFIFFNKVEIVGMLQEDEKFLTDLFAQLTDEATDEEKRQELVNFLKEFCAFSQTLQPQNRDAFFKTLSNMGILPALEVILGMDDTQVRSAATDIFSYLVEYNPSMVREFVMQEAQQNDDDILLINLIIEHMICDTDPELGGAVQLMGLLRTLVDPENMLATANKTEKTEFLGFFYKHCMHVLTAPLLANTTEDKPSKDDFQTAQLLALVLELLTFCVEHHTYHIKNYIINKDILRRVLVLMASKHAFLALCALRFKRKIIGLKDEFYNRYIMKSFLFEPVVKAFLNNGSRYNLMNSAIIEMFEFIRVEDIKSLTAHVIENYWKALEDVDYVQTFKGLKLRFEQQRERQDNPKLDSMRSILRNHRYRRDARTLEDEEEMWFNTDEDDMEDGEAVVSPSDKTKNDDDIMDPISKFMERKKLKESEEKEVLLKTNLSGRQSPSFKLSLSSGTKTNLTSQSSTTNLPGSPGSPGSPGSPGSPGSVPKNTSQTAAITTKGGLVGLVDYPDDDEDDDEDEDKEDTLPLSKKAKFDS

[2] = target: T1, FLAG-tagged Smek1 (human); assay: reverse co-immunoprecipitation from 293T cells, western blot
[3] = target: HA-tagged FOXO3a (human) (UniProt O43524); assay: co-immunoprecipitation from 293T cells, western blot
[4] = target: HA-tagged FOXO4 (AFX) (UniProt P98177); assay: as above

- binding [1]: binds
Molecule: HA-tagged FOXO4 (AFX) (from UniProt P98177 1-505)

- binding [1]: binds
Molecule: HA-tagged FOXO4-TM (from UniProt P98177 1-505)

- binding [2]: binds
Molecule: HA-tagged FOXO3a (from UniProt O43524 1-673)

- binding [3]: binds
- binding [4]: binds
B1: FLAG-tagged Smek1 (protein)
chain: MTDTRRRVKVYTLNEDRQWDDRGTGHVSSGYVERLKGMSLLVRAESDGSLLLESKINPNTAYQKQQDTLIVWSEAENYDLALSFQEKAGCDEIWEKICQVQGKDPSVDITQDLVDESEEERFDDMSSPGLELPSCELSRLEEIAELVASSLPSPLRREKLALALENEGYIKKLLELFHVCEDLENIEGLHHLYEIIKGIFLLNRTALFEVMFSEECIMDVIGCLEYDPALSQPRKHREFLTKTAKFKEVIPISDPELKQKIHQTYRVQYIQDMVLPTPSVFEENMLSTLHSFIFFNKVEIVGMLQEDEKFLTDLFAQLTDEATDEEKRQELVNFLKEFCAFSQTLQPQNRDAFFKTLSNMGILPALEVILGMDDTQVRSAATDIFSYLVEYNPSMVREFVMQEAQQNDDDILLINLIIEHMICDTDPELGGAVQLMGLLRTLVDPENMLATANKTEKTEFLGFFYKHCMHVLTAPLLANTTEDKPSKDDFQTAQLLALVLELLTFCVEHHTYHIKNYIINKDILRRVLVLMASKHAFLALCALRFKRKIIGLKDEFYNRYIMKSFLFEPVVKAFLNNGSRYNLMNSAIIEMFEFIRVEDIKSLTAHVIENYWKALEDVDYVQTFKGLKLRFEQQRERQDNPKLDSMRSILRNHRYRRDARTLEDEEEMWFNTDEDDMEDGEAVVSPSDKTKNDDDIMDPISKFMERKKLKESEEKEVLLKTNLSGRQSPSFKLSLSSGTKTNLTSQSSTTNLPGSPGSPGSPGSPGSPGSVPKNTSQTAAITTKGGLVGLVDYPDDDEDDDEDEDKEDTLPLSKKAKFDS
